The comparison behind a weaker result is the experiment's own reference, which may not be listed here. For some of these results: For at least one entry, the source does not settle the construct or the ends of the probe. For some of these results: At least one verdict was read from the data and is not stated in words by the source.

By UniProt entry, the sequences of proteins in these tests, tags left out. Residues count along the entry.
UniProt Q12849, 118-480 Q155A/W159A/E223A/R255A/Y259A/E320A/R406A/F410A/E470A: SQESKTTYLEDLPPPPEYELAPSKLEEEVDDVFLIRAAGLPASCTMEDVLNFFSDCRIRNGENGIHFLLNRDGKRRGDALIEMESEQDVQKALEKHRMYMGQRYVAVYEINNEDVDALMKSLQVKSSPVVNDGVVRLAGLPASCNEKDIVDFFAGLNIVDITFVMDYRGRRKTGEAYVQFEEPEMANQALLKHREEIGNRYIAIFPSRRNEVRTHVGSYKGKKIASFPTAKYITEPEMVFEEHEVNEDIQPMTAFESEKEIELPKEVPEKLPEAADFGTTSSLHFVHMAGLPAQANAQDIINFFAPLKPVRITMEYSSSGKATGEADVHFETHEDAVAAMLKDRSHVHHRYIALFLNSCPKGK
UniProt Q12849, 118-480: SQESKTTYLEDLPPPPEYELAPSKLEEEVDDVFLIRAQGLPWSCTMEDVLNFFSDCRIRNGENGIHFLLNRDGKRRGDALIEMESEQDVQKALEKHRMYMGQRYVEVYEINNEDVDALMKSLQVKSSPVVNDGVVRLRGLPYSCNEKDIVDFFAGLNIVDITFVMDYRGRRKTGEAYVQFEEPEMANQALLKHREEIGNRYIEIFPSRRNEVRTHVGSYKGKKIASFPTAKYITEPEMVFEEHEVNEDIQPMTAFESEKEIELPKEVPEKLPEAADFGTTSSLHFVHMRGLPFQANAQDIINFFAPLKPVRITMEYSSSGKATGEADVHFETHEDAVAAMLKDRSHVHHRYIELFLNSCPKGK

The target in series [1] is GRSF1 mutant (qRRM mutant) Q155A,W159A,E223A,R255A,Y259A,E320A,R406A,F410A,E470A (Homo sapiens) (UniProt Q12849). Description: EMSA. To be noted: 75 ug/ml heparin, EMSA: 5 nM RNA, 0-2560 nM protein, 10 mM Tris-HCl pH 8.0, 2.5 mM KCl, 30 mM NaCl, 1 mM EDTA, 0.2 mM DTT, 30 min at 30 C, 7% PAGE, recombinant protein, residues 118-480, protein details: N-terminal 6xHis-SUMO, cleaved by SUMO protease, label: 5'-32P. For orientation: Mobility shift assays separate free from complexed probe on a gel.

Series [2] concerns the target GRSF1 wild type (Homo sapiens) (UniProt Q12849). The series is described as follows: EMSA. The following applies: 75 ug/ml heparin, EMSA: 5 nM RNA, 0-2560 nM protein, 10 mM Tris-HCl pH 8.0, 2.5 mM KCl, 30 mM NaCl, 1 mM EDTA, 0.2 mM DTT, 30 min at 30 C, 7% PAGE, recombinant protein, residues 118-480, protein details: N-terminal 6xHis-SUMO, cleaved by SUMO protease, label: 5'-32P.

Regarding “GAAGCGGGGGAGGGGGGGUUUGGUGGAAAUUUU [Mito3]”, the binding result in series [1] is “binds more weakly”; in series [2] it was “binds”.
Regarding “GCGCUGUGACUAGUAUGUUGAGUCCUGUAAGUAGCAGAGUGAUAUUUGAUCACGAGAACGUCGUUACUAGCACCCA [tRNA-like mutant]”, the binding result in series [2] was “binds more weakly”.
As to “GGGCUGUGACUAGUAUGUUGAGUCCUGUAAGUAGGAGAGUGAUAUUUGAUCAGGAGAACGUGGUUACUAGCACCCA [tRNA-like]”, in series [1], the binding result is listed as “binds more weakly”.
